The list shows a part of the results.
Legend:
Test in all cases: log2 fold change, soluble protein after heating vs DMSO (PISA); higher = thermal stabilisation; K562 lysate, 10 uM; active = over 0.2 and 3.5 SD of the protein, either way, in both replicates (recomputed)
erlotinib = compound: C#Cc1cccc(Nc2ncnc3cc(OCCOC)c(OCCOC)cc23)c1 [erlotinib]
Outline: (§1)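 K562 pellets were dounce-homogenised in PBS pH 7.4 containing 1 mM MgCl2, and the crude extract, at 1 mg/mL protein, was exposed to 10 μM compound for 30 min. Aliquots were heated for 3 min across 48°C-58°C, pooled, brought to 0.5% NP-40 at 4°C and spun at 21,000xg for 90 min, with the supernatant taken as soluble protein. TMTpro 16plex LC-MS/MS with equalised channel sums quantified that protein. Values are log-two fold changes in thermal stability relative to solvent controls, taken from duplicates.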

Chains of the proteins cited; added tags and fusions are not shown. Lines headed by an entry give the natural chain unless they say otherwise; changes in a name come on top.
UniProt Q08334: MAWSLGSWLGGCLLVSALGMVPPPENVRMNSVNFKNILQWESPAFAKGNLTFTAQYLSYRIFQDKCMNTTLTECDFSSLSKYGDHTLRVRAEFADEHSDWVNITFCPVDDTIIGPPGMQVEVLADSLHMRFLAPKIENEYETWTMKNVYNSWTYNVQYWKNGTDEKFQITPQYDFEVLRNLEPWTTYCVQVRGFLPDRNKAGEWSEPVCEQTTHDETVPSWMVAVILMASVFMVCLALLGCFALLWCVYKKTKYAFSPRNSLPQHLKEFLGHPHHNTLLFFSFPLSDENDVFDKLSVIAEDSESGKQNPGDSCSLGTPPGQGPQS
UniProt Q92598: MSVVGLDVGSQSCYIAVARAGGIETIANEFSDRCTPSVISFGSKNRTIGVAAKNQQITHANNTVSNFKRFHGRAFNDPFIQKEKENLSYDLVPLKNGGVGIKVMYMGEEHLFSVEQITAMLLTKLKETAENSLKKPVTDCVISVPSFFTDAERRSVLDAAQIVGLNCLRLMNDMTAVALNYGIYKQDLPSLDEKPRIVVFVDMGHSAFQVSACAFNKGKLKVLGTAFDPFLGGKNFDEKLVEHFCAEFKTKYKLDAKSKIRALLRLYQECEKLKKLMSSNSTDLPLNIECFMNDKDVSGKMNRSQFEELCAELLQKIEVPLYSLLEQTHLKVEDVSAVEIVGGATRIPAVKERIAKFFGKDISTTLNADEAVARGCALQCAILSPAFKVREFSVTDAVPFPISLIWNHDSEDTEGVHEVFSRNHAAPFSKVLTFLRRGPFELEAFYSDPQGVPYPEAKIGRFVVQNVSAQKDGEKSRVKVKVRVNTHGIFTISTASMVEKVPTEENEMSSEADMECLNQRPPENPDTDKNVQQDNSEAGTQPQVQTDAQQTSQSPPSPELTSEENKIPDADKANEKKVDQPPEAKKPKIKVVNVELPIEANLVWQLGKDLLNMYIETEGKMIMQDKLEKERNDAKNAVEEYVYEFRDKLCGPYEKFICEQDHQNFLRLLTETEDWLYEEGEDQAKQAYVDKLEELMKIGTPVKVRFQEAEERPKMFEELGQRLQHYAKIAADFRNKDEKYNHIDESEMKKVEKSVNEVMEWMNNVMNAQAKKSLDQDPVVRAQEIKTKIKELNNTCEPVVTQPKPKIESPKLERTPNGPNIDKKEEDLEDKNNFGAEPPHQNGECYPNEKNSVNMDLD
UniProt Q9Y2F5: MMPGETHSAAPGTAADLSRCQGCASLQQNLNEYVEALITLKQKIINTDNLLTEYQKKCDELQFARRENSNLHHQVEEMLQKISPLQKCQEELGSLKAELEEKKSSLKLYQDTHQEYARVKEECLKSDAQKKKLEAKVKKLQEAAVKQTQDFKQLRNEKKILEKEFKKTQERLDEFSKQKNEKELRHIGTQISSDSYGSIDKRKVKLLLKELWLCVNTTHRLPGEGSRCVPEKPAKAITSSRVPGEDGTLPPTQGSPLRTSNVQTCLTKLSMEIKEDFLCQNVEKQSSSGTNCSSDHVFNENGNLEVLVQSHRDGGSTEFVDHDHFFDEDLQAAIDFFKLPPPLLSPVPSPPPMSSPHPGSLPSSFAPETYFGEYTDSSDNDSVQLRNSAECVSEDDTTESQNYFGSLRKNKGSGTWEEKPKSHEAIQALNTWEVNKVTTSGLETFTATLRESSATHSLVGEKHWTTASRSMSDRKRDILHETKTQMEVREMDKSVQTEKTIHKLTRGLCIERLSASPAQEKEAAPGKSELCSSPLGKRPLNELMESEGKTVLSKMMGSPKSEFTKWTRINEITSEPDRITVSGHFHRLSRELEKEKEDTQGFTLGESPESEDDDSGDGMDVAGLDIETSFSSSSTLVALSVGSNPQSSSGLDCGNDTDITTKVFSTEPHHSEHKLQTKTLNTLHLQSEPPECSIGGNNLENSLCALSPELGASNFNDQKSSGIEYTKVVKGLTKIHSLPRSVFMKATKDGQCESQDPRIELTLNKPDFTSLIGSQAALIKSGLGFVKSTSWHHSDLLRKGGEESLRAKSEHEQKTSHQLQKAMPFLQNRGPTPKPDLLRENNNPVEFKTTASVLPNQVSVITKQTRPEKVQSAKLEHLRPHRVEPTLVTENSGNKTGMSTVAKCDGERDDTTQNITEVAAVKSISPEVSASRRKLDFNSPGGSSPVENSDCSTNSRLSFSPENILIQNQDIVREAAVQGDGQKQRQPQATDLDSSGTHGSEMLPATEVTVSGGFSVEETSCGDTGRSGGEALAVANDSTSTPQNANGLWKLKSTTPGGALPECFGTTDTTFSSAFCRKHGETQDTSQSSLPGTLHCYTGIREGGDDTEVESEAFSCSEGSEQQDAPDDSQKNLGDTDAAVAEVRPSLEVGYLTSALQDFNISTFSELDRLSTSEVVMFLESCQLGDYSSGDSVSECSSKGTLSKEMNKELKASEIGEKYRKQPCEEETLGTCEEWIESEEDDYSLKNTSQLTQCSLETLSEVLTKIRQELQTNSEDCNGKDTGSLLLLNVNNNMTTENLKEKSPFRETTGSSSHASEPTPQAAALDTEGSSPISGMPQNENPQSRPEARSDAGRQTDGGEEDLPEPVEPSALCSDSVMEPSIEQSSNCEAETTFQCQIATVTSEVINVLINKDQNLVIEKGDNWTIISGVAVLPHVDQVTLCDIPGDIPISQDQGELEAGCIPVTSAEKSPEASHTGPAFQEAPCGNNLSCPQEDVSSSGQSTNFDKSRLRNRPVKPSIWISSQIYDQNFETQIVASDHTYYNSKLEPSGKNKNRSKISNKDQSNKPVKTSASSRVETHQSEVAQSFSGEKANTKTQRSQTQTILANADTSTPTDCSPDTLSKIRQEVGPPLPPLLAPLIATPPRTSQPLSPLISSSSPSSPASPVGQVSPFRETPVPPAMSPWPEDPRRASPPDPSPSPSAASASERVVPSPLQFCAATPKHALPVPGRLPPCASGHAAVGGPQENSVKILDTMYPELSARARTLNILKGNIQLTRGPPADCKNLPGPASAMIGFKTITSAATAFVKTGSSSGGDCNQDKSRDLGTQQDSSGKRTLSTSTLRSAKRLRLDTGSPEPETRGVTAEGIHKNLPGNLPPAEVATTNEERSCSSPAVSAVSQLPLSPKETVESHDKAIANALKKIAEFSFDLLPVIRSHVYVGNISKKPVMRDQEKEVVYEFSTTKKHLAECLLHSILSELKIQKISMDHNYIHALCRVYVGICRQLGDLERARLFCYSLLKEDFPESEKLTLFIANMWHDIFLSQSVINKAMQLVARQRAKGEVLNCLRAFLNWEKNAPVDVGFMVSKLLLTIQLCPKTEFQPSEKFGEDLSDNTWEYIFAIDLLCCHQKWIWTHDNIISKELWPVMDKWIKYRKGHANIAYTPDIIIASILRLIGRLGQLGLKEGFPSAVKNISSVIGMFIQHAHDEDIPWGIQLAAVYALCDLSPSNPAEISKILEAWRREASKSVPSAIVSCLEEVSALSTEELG
UniProt Q9ULG1, whole entry, looked up: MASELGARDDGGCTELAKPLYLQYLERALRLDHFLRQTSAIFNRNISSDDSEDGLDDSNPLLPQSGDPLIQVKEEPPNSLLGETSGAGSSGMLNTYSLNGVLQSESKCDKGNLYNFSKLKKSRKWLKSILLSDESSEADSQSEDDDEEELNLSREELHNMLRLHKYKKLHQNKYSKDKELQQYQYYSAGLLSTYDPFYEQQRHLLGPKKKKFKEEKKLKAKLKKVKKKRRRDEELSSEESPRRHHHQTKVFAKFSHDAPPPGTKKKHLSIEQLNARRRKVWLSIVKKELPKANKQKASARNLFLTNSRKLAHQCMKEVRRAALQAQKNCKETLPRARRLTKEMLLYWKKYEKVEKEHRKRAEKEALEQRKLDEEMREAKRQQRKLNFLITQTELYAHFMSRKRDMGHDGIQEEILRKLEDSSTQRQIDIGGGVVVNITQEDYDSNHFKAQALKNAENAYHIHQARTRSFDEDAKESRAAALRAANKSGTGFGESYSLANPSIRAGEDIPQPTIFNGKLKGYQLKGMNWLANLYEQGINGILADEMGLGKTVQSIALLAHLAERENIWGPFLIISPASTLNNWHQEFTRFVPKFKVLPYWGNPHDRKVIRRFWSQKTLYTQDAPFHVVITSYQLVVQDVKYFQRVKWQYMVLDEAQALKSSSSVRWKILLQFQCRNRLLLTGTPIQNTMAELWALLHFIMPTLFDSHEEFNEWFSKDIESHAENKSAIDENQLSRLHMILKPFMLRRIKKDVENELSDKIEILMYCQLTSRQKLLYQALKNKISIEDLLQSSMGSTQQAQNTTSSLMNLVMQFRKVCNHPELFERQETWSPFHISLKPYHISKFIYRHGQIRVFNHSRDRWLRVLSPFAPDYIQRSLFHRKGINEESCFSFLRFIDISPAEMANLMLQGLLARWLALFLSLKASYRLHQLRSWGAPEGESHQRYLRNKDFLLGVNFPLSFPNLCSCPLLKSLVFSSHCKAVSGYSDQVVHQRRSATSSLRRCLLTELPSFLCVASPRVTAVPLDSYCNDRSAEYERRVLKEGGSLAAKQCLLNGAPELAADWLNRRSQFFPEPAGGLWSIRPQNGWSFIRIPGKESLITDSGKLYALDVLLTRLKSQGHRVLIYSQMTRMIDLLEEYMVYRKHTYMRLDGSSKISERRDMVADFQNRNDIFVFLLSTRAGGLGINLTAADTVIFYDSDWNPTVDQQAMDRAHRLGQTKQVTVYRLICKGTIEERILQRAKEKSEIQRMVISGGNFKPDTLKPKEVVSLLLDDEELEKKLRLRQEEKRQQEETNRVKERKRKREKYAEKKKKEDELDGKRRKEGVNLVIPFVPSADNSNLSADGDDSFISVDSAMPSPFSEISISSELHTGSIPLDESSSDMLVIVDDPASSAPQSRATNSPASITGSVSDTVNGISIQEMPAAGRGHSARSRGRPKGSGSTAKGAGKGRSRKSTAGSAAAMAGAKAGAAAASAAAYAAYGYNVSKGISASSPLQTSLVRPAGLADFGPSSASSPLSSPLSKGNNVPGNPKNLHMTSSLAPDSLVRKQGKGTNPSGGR
UniProt P17181: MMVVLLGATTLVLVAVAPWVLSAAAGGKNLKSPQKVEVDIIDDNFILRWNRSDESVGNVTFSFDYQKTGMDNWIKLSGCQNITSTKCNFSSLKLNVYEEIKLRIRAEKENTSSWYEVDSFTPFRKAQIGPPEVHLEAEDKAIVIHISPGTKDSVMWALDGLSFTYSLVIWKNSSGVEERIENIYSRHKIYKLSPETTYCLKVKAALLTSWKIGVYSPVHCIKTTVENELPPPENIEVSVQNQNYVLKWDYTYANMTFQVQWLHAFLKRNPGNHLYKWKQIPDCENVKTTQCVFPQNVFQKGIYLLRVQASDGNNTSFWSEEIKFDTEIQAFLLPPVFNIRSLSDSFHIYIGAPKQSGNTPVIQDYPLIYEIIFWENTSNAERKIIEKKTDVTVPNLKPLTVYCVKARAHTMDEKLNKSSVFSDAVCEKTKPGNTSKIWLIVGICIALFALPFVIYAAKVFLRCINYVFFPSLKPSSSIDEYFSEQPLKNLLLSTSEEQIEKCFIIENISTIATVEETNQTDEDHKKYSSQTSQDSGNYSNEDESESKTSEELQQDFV
UniProt Q9NQS7, whole entry, looked up: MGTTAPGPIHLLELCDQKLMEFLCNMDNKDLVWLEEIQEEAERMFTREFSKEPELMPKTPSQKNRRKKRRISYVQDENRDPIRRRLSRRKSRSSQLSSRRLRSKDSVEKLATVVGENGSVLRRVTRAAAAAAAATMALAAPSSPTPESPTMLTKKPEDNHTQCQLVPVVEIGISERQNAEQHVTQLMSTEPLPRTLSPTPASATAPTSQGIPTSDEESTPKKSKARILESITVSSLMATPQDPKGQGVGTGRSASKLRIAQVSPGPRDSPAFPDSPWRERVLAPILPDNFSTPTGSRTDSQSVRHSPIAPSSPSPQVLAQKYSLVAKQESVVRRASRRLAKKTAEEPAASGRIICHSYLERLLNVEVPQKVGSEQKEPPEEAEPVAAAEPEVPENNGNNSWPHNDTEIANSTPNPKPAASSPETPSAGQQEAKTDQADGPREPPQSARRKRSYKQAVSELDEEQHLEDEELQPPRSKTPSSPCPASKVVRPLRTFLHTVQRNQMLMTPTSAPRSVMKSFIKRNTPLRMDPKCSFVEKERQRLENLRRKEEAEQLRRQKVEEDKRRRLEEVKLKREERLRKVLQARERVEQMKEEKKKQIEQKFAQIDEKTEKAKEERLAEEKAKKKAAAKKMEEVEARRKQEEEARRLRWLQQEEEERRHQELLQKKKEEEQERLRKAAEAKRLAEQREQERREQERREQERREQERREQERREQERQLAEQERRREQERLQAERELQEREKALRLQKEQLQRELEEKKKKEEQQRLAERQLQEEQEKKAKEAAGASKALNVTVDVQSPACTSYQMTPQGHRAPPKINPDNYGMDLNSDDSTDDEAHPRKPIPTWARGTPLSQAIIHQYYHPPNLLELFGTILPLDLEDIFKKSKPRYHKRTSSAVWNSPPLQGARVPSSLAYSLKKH

[1] = compound: C/C(=N\NC(=O)C1=CC(=CC=C1)S(=O)(=O)N2CCOCC2)/C3=C(C=CC(=C3)Cl)O
Outline: as §1

[2] = compound: C1=CC(=CC=C1C2=NC3=C(N2)C=C(C=C3)C(=O)N)OC4=CC=C(C=C4)Cl
Outline: as §1

[3] = compound: C1=CC2=C(C=CC(=C2)/C=C\3/C(=O)NC(=NCC4=CC=CS4)S3)N=C1
Outline: as §1

[4] = compound: C1=CC=C(C=C1)C2=NC(=C(N2)C3=CC=NC=C3)C4=CC(=C(C=C4)Cl)O
Outline: as §1

[5] = compound: C1=CC=C2C(=C1)C3=NNC4=CC=CC(=C43)C2=O
Outline: as §1

[6] = compound: C1CCN(C1)C(=O)NC2=CC=CC(=C2)NC3=NC=C(C(=N3)NCCC4=CN=CN4)Br
Outline: as §1

[7] = compound: C1CN(CCC1(CC2=CC=C(C=C2)Cl)N)C3=NC=NC4=C3C=CN4
Outline: as §1

IRAK-1-4 Inhibitor I = compound: C1COCCN1CCN2C3=CC=CC=C3N=C2NC(=O)C4=CC(=CC=C4)[N+](=O)[O-] [IRAK-1-4 Inhibitor I]
Outline: as §1

[8] = compound: CC(=O)c1cnc2ccc(-c3cc(Cl)c(O)c(Cl)c3)nc2c1N[C@H]1CC[C@H](CN(C)C)CC1
Outline: as §1

ralimetinib = compound: CC(C)(C)Cn1c(N)nc2ccc(-c3[nH]c(C(C)(C)C)nc3-c3ccc(F)cc3)nc21 [ralimetinib]
Outline: as §1

[9] = compound: CC(C)(O)CC(=O)NCCn1ccc2ncnc(Nc3ccc(Oc4cccc(C(F)(F)F)c4)c(Cl)c3)c21
Outline: as §1

[10] = compound: CC(C)C1=C2N=C(C=C(N2N=C1)NCC3=CC=CC=C3)NCCCCCCN
Outline: as §1

[11] = compound: CC1=C(C(CC(=O)N1)C2=CC=C(C=C2)C(F)(F)F)C(=O)NC3=C(C=C4C(=C3)C=NN4)F
Outline: as §1

[12] = compound: CC1=C(C2=C(C=C1)C(=O)C3=CC=CC=C3N2CCCN)C
Outline: as §1

[13] = compound: CC1=C(C=C(C=C1)NC(=O)C2=CC(=CC=C2)C(C)(C)C#N)NC3=CC4=C(C=C3)N=CN(C4=O)C
Outline: as §1

[14] = compound: CC1=C(C=C(C=C1)NC(=O)C2=CC(=CC=C2)N(C)C)NC(=O)C3=CC=C(C=C3)O
Outline: as §1

[15] = compound: CC1=CC=C(C=C1)SC2=C3C=C(SC3=CN=C2)C(=O)N
Outline: as §1

[16] = compound: C1=CC2=NC=CN=C2C=C1/C=C/3\C(=O)NC(=O)S3
Outline: as §1

ibrutinib = compound: C=CC(=O)N1CCC[C@@H](n2nc(-c3ccc(Oc4ccccc4)cc3)c3c(N)ncnc32)C1 [ibrutinib]
Outline: as §1

Measured: log2 fold change

IL10RB (UniProt Q08334)
inactive: erlotinib 0.021 | [1] 0.259 | [2] -0.08 | [3] -0.083 | [4] 0.098 | [5] -0.046 | [6] 0.056 | [7] -0.004 | IRAK-1-4 Inhibitor I -0.007 | [8] -0.056 | ralimetinib 0.023 | [9] -0.02 | [10] -0.002 | [11] -0.03 | [12] -0.012 | [13] 0.057 | [14] 0.09 | [15] 0.04

IL17RA (UniProt Q96F46)
inactive: [16] 0.004 | [6] 0.206 | [7] 0 | ibrutinib 0 | [8] -0.054 | [12] 0.023 | [13] -0.1 | [15] 0.055

HUWE1 isoform 2 (UniProt Q7Z6Z7)
inactive: [6] 0.235 | [7] -0.039 | [8] -0.068 | [15] -0.442

HSPH1 isoform 2 (UniProt Q92598)
inactive: [16] -0.149 | [4] -0.028 | [6] -0.212 | [7] -0.007 | IRAK-1-4 Inhibitor I -0.057 | ibrutinib -0.302 | [8] -0.083 | ralimetinib 0.006 | [9] 0.011 | [12] 0.169 | [14] -0.212 | [15] -0.102

IGHM isoform 2 (UniProt P01871)
inactive: [11] 1.86 | [12] -2.18

HUWE1, A0A087X1S3
inactive: [16] -0.017 | [4] 0.101 | [6] -0.129 | [7] 0 | IRAK-1-4 Inhibitor I -0.015 | ibrutinib 0.038 | [8] 0.046 | ralimetinib -0.129 | [9] -0.092 | [12] -0.148 | [14] 0 | [15] -0.006

ICE1 (UniProt Q9Y2F5)
inactive: [16] 0.122 | [4] -0.079 | [6] 0.051 | [7] -0.05 | IRAK-1-4 Inhibitor I 0.081 | ibrutinib 0.028 | ralimetinib 0 | [9] -0.259 | [11] -0.031 | [12] -0.083 | [13] -0.023 | [14] -0.028

IGHA2 (UniProt P01877)
inactive: [4] -0.168 | IRAK-1-4 Inhibitor I -0.507 | ralimetinib 0.303 | [9] 0.371 | [14] 0.289

INO80 (UniProt Q9ULG1)
inactive: [8] -0.004 | [13] 0.071 | [15] -0.152

ICOSLG isoform 2 (UniProt O75144)
inactive: [16] -0.045 | [4] -0.108 | IRAK-1-4 Inhibitor I 0.276 | ibrutinib -0.183 | ralimetinib 0.156 | [9] -0.173 | [14] -0.048

IDUA (UniProt P35475)
inactive: [13] -0.14

Copied from above (2 entries):
INO80 (UniProt Q9ULG1)
inactive: [8] -0.004 | [13] 0.071 | [15] -0.152

ICOSLG isoform 2 (UniProt O75144)
inactive: [16] -0.045 | [4] -0.108 | IRAK-1-4 Inhibitor I 0.276 | ibrutinib -0.183 | ralimetinib 0.156 | [9] -0.173 | [14] -0.048

Additional entries follow.

IGKV3-20 (UniProt P01619)
inactive: [12] -0.906

INAFM2 (UniProt P0DMQ5)
inactive: [12] -0.019 | [13] 0.025

IFIH1 (UniProt Q9BYX4)
inactive: [16] 0.117 | [6] -0.033 | [7] -0.138 | ibrutinib 0.125 | [8] 0.015 | [15] -0.129

IFT88 (UniProt Q13099)
inactive: [4] 0.025 | IRAK-1-4 Inhibitor I 0.053 | ralimetinib 0.134 | [9] -0.009 | [11] 0.099 | [13] 0.066 | [14] -0.066

IFNAR1 (UniProt P17181)
inactive: [12] 0.025 | [13] 0.027

IGF2BP2 isoform 6 (UniProt Q9Y6M1)
inactive: [8] -0.031 | [15] -0.016

IL15RA (UniProt Q13261)
inactive: [13] -0.033

INCENP (UniProt Q9NQS7)
inactive: [12] 0.124

HSPH1 (UniProt Q5TBM3)
inactive: [16] 0.039 | [4] 0.05 | IRAK-1-4 Inhibitor I -0.18 | ibrutinib -0.311 | [8] -0.045 | ralimetinib -0.128 | [9] -0.073 | [14] -0.007 | [15] -0.044

IMP4 (UniProt Q96G21)
inactive: [8] 0.055 | [13] -0.021 | [15] 0.062

Source: the supplement of paper PMC10849652
